Results reported in PubChem BioAssay AID2685 (National Center for Advancing Translational Sciences (NCATS), 2010).
The other results are listed elsewhere or left out. The main result of the screen is listed elsewhere. These columns were measured beside it and carry no call. The list favours compounds with an active or inconclusive main result. Words in brackets tell the shape of the fitted curve; partial curves, single points and poor fits give uncertain potencies.

Assay: qHTS Assay for Lipid Storage Modulators in Drosophila S3 Cells;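 on cell number change: cells counted by Cell Tracker Red CMTPX staining in the red channel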
Settings: BODIPY lipid droplet fluorescence, 18-24 h; for cell number change: measured here: cell count max response, cells fed with added oleic acid
Summary of the method: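 Laser-scanning cytometry quantifies lipid droplet accumulation (500–530 nm total intensity; droplet/cell object ratio) in oleic acid-fed (400 uM added) Drosophila S3 cells treated with a concentration series. 20 uM Triacsin C defined 100% inhibition.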

[1] = measured here: cell number channel AC50, cells fed with added oleic acid
[2] = measured here: lipid fluorescence (Fed channel) AC50, cells fed with added oleic acid

Structure (SMILES) | cell number change [%] | AC50 [1] | AC50 [2]
COc1cc(/C=C/C(=O)O)ccc1OCc1ccc([N+](=O)[O-])cc1 | -35.5 | 4.11 µM [falling, full curve] | –
COc1ccc(C(=O)CCc2ccccc2O)c(OC)c1 | 5.87 | – | 3.26 µM [falling, partial curve, poor fit]
COc1ccc(C(CNC(=O)CNC(=O)c2ccccc2Cl)N2CCCC2)cc1 (configuration not stated) | 7.36 | – | 9.2 µM [falling, partial curve]
CCN(CC)S(=O)(=O)c1ccc2c(c1)N(CC(=O)NCc1ccco1)C(=O)CO2 | – | – | 29.1 µM [falling, single point]
O=C(COc1ccc(Br)cc1)N1CCN(c2ccccc2)CC1 | 78.7 | – | –
O=S(=O)(Nc1ccc(Cl)cc1)c1ccc(N2CCOCC2)c(NC(=S)NCCN2CCOCC2)c1 | 9.25 | – | –
Cc1ccc(C#N)c(SCCN2CCCCC2)n1 | 19.9 | – | 0.291 µM [rising, partial curve, poor fit]
Cc1ccc(S(=O)(=O)N2CCC(C(=O)N[C@@H](Cc3ccccc3)C(=O)O)CC2)cc1 | -148 | 29.1 µM [falling, partial curve] | 29.1 µM [falling, single point]
COc1ccccc1NC(C)C(=O)N/N=C/c1ccccc1OCc1cccc(Br)c1 (configuration not stated) | 28.7 | 0.259 µM [rising, full curve, poor fit] | –
CCCCN(CCCC)CCNC(=O)CNC(=O)c1cccs1 | -165 | 2.91 µM [falling, partial curve] | 29.1 µM [falling, partial curve]
CCN(CC)S(=O)(=O)c1ccc(NCc2ccccc2)nc1 | -4.18 | – | –
COc1ccc(-c2csc(NC(=S)NC(=O)/C=C/c3ccco3)n2)cc1OC | -83.3 | 16.4 µM [falling, partial curve] | –
COc1ccc(C(CCN(Cc2ccc(OC)c(OC)c2)C(C)=O)C(C)C)cc1 (configuration not stated) | – | – | 29.1 µM [falling, single point]
C=CCNC(=O)c1ccccc1NC(=O)c1ccccc1N(C)S(C)(=O)=O | -15 | – | –
CCCC(=O)Nc1ccc2c(c1)nc1n2CCN(CCOC)C1 | 19.9 | – | 18.4 µM [rising, single point]
Clc1cccc(NC2=NCCC2)c1 | – | – | 11.6 µM [falling, partial curve]
Cc1nc(-c2cccc(NS(=O)(=O)c3ccccc3)c2)cs1 | 31.9 | 5.17 µM [rising, full curve, poor fit] | –
Cc1ccc(N(C)S(=O)(=O)c2cccc(C(=O)N(C)Cc3cnn(-c4ccccc4)c3)c2)cc1 | -96.8 | 18.4 µM [falling, single point] | 29.1 µM [falling, single point]

Reformatted: two of the compounds above
O=C(COc1ccc(Br)cc1)N1CCN(c2ccccc2)CC1
  cell number change [%]: 78.7
COc1ccccc1NC(C)C(=O)N/N=C/c1ccccc1OCc1cccc(Br)c1 (configuration not stated)
  cell number change [%]: 28.7; AC50 [1]: 0.259 µM [rising, full curve, poor fit]
